Experimental data: paper PMC7862700
The list shows a part of the results, in another mix than the full data. At the low end of the ranking the order means little.

target: T1, ETS2 (UniProt P15036); test: DAPPL (digital affinity profiling via proximity ligation, sequencing); conditions: 10 mM Tris-HCl pH 7.5, 50 mM NaCl, 1 mM DTT, 4% glycerol, room temperature, 30 min; GST-TFs on glutathione beads, 16-mer random dsDNA library, 0.1% …; high values mean tight binding; double strand, one strand shown; scale: fold enrichment (6-mer frequency, TF over GST control)
T1 sequence: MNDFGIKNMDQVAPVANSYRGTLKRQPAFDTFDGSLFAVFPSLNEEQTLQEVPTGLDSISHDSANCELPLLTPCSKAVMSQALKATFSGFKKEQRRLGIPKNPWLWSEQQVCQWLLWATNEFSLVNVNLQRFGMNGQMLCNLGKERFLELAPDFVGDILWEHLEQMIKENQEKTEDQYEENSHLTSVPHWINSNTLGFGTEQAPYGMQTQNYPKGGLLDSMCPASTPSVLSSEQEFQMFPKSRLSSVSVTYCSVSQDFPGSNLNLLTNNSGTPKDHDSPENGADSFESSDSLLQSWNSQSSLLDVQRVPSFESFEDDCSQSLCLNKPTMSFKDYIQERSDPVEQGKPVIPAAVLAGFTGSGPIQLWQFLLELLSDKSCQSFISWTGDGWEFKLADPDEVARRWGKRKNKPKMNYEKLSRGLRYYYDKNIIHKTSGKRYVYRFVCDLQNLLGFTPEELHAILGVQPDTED

Sequence | binding signal
ATCAAC | 1.18
ATGGGC | 1.28
TTACCT | 1.32
CGGTTC | 1.21
CGGAAA | 2.07
GGAAAT | 2.75
AGGTTT | 1.01
GCTTTT | 1.17
CTCTCG | 1.4
TATGAG | 1
GCTTAC | 1.09
ACGCGC | 0.937
CACATC | 1.38
TGTATG | 1.26
CTATTA | 1.14
TGGACT | 1.27
CACCCG | 1.19
CAACTG | 1.13
CCCAAC | 1.13
ACCTTG | 1.27

Sequence | binding signal
TCCTTC | 2.09
TACCGG | 1.6
CAATGT | 0.975
AACTGG | 1.3
CGTAAA | 1.14
CCCACT | 1.32
ACTTAG | 1.14
CCTAAT | 1.33
CGACTG | 1.08
CCCGGC | 1.16
CGATGT | 1.12
ACTGCC | 1.29
TTATAT | 1.39
TTTGTT | 1.26
ATACGG | 1.22
TAACCG | 1.07
TCCGCC | 1.54
CCTCCG | 1.31
CGCCTA | 1.19

Laid out differently: results already given
Sequence	binding signal
TCCGCC	1.54
CCTCCG	1.31
